Laboratory results from patent US20200331998A1.
Results are given in words; binding and its absence hold for the method and conditions named. Some binding calls cover weakened binding; strength is not graded here.

Experiments:
[1] = target: m4G7-scFv-Fc; experiment: SPR (Biacore, 25° C.) binding check, m4G7-scFv-Fc at 100 nM
[2] = target: UCART19 CAR (anti-CD19 chimeric antigen receptor with a 4G7-derived scFv, on UCART19 cells); experiment: flow cytometry titration of the antibody on UCART19 cells, signal-to-noise against ug/test, upper graph
[3] = target: UCART19 CAR (anti-CD19 chimeric antigen receptor with a 4G7-derived scFv, on UCART19 cells); experiment: flow cytometry on primary human T cells expressing UCART19
[4] = target: UCART19 CAR (anti-CD19 chimeric antigen receptor with a 4G7-derived scFv, on UCART19 cells); experiment: flow cytometry, PE signal, UCART19 cells spiked into blood or in PBS
[5] = target: UCART19 CAR (anti-CD19 chimeric antigen receptor with a 4G7-derived scFv, on UCART19 cells); experiment: flow cytometry blocking assay: fresh UCART19 cells pre-incubated with unconjugated antibody, then stained with labelled soluble CD19-hFc; blocked ligand: m14
[6] = target: UCART19 CAR (anti-CD19 chimeric antigen receptor with a 4G7-derived scFv, on UCART19 cells); experiment: flow cytometry titration of APC-conjugated A8 on UCART19 cells, signal-to-noise against ug/test, lower graph
[7] = target: UCART19 CAR (anti-CD19 chimeric antigen receptor with a 4G7-derived scFv, on UCART19 cells); experiment: flow cytometry on UCART19 cells
[8] = target: UCART19 CAR (anti-CD19 chimeric antigen receptor with a 4G7-derived scFv, on UCART19 cells); experiment: flow cytometry titration of PE-conjugated A8 on UCART19 cells, signal-to-noise against ug/test, lower graph

Measured: binding

B1: E2153.1D9.B4 (antibody, V domains shown)
VH: QVQLQQSGAELVRPGTSVKVSCKASGYAFTNYLIEWIKQRPGQGLEWIGVINPGSGGINYNEKFKGKATLTSDKSSSTAYMQLSSLTSDDSAVYFCARWLDYDWFAYWGQGTLVTVSA
VL: DIKMTQFPSSMYASVGERVTITCKASQDINSYLSWFQQKPGKSPKTLIYRANRLVDGVPSRFSGSGSGQDYSLTISSLEYEDMGIYYCLQCDEFPFTFGGGTKLEIK
binds: [1] | [2] | [3]

B2: E2153.4D7.E11 (antibody, V domains shown)
VH: QVQLQQSGAELVRPGTSVKVSCKASGYAFTNYLIEWVKQRPGQGLEWIGVITPGSGGSNYNEKFKGKATLTADKSSSTAYMQLSSLTSDDSAVYFCARWLDYDWFAYWGQGTLVTVSA
VL: DIKMTQSPSSMYASLGERVTITCKASQDINSYLSWFQQKPGKSPKTLIYRANRLVDGVPSRFSGSGSGQDYSLTISSLEYEDMGIYYCRQCDEFPSTFGGGTKLEIK
binds: [1] | [4] | [2] | [3]

B3: E2153.2H8.A8 (antibody, V domains shown)
VH: QVQLQQSGAELVKPGASVKVSCKAFGYTFTTYPIEWMRQNHGKSLEWIGNFHPYNDDTRYNEKFKDKAKLTVEKSSSTVYLELSRLTYDDSAVYYCTRGNDYDLYGMDYWGQGTSVTVSS
VL: DIKMTQSPSSMYASLGERVTITCKASQDINTYLTWFQQKPGKSPKTLIYRANRLVDGVPSRFSGSGSGQDYSLTISSLEYEDMGIYYCLQCDDFPLTFGAGTKLELKR
binds: all assays above

B4: E2153.1C4.E2 (antibody, V domains shown)
VH: QVQLQQSGAELVKPGASVKVSCKAFGYTFTTYPIEWMRQNHGKSLEWIGNFHPYNDDTRYNEKFKDKAKLTVEKSSSTVYLELSRLTYDDSAVYYCTRGNDYDLYGMDYWGQGTSVTVSS
VL: DIKMTQFPSSMYASLGERVTITCKASQDINTYLTWFQQKPGKSPKTLIYRANRLVDGVPSRFSGSGSGQDYSLTISSLEYEDMGIYYCLQCDDFPLTFGAGTKLELK
binds: [1] | [2] | [3]
